Part of at least one peptide drawing is inferred or uncertain, most often the ends. Where a SMILES comes first, the peptide text is derived from it.
What was measured:
[1] = test system: B16F10 melanoma cells; experiment: Melanin level assay in B16F10 cells; format: cell-based, mouse; settings: B16F10 cells treated with different concentrations of peptide for 48 or 72 hours; FIGS. 1A and 1B
[2] = test system: tyrosinase activity in B16F10 cells; experiment: Tyrosinase assay on lysates of treated B16F10 cells; format: cell-based, mouse; settings: peptide 5-50 μg/ml, 48 or 72 hours, L-DOPA substrate, FIG. 2

C[C@H](NC(=O)[C@H](CO)NC(=O)[C@@H](N)CC(N)=O)C(=O)N[C@H](C(=O)N[C@@H](CCC(=O)O)C(=O)N[C@@H](CCCNC(=N)N)C(=O)N[C@@H](CCC(=O)O)C(=O)O)[C@@H](C)O [peptide of SEQ ID NO: 1, AsnSerAlaThrGluArgGlu] (H-NSATERE-OH)
melanin synthesis / melanin level [1]: significantly increased melanin synthesis in a concentration-dependent manner | tyrosinase activity [2]: significantly increased tyrosinase activity

— US10258557B2, “Peptide for stimulating melanogenesis” (priority 2017, dated 2019)
